Laboratory results published in the supplement of paper PMC12823440, “Inhibitors supercharge kinase turnover through native proteolytic circuits” (Nature, 2025).
Where a name gives a salt, the structure may show the parent alone. This is one part of the list. The calls rarely recur for the same compound in another form.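 Kinases, fused to nanoluciferase, were expressed in K562 cells; luminescence was measured every 4 h from 2 to 18 h as percent of control (DMSO = 100%, positive control = 0%). A time point is decreased if signal falls significantly (2 sigma). Hits were called by the authors by a rule that is not shown; the count of time points alone does not decide it.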

Chains of the proteins cited; added tags and fusions are not shown. Lines headed by an entry give the natural chain unless they say otherwise; changes in a name come on top.
UniProt O75460: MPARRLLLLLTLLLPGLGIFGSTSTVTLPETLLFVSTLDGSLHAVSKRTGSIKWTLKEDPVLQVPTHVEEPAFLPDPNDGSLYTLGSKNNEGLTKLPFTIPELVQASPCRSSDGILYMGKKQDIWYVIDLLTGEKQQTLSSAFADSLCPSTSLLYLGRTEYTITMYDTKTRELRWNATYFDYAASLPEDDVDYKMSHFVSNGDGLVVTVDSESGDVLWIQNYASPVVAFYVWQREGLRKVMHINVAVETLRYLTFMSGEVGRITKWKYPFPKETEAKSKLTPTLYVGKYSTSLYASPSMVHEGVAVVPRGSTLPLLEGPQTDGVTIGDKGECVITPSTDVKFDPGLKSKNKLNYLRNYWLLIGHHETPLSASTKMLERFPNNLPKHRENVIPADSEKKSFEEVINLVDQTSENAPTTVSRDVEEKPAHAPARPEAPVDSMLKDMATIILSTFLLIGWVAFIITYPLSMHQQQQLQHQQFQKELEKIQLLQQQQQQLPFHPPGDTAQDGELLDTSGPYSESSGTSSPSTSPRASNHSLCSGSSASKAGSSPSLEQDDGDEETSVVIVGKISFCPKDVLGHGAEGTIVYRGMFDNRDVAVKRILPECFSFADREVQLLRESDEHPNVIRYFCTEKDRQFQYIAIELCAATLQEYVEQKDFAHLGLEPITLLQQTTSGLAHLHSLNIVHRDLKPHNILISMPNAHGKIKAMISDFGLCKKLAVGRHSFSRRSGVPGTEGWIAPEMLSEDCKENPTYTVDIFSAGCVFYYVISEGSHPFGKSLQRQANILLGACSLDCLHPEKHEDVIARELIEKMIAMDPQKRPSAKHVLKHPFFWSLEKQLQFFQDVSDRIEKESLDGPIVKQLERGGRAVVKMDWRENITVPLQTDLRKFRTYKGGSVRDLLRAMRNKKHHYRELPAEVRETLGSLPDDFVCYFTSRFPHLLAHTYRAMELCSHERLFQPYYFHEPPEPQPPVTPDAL
UniProt P11362, whole entry, looked up: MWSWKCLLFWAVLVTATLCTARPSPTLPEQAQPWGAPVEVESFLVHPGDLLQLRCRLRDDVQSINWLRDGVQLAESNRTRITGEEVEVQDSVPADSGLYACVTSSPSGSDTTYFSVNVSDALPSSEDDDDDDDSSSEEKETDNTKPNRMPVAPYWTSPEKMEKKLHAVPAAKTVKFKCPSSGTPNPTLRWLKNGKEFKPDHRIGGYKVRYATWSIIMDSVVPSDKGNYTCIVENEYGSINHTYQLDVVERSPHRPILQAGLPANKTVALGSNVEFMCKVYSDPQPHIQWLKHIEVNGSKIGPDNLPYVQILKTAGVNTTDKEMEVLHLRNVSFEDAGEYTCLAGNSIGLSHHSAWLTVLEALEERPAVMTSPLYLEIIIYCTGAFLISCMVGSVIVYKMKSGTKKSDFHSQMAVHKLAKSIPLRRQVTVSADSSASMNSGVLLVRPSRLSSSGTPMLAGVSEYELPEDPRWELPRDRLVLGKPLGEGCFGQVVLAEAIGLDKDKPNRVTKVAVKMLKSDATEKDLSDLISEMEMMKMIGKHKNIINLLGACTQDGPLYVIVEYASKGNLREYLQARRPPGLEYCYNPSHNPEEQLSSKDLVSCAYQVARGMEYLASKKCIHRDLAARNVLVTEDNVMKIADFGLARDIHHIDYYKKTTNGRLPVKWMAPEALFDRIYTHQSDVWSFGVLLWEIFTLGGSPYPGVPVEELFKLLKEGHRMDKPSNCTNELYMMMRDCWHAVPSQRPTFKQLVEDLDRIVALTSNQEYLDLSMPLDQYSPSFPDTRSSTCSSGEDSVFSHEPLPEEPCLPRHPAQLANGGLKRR
UniProt P22607, whole entry, looked up: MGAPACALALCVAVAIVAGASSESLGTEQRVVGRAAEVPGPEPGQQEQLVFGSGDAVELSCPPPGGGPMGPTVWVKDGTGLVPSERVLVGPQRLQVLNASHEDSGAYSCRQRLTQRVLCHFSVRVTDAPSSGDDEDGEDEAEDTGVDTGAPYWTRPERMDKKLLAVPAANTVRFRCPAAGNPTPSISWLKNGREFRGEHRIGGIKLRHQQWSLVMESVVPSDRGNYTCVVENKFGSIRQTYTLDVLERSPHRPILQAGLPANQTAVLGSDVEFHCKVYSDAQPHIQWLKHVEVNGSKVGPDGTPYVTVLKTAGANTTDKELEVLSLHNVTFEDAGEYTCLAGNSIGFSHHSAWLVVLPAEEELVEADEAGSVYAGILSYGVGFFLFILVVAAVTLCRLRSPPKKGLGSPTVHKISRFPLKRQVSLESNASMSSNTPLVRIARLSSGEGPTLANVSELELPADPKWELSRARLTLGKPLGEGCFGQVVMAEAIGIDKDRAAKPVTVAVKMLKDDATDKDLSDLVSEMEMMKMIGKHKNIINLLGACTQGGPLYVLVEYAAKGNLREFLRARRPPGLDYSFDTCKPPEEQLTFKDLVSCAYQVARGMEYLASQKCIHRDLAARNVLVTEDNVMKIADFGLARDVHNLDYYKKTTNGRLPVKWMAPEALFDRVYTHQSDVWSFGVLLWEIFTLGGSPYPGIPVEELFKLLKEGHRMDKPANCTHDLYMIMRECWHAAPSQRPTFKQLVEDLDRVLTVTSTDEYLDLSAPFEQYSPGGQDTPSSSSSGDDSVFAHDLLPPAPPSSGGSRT
UniProt P36888, whole entry: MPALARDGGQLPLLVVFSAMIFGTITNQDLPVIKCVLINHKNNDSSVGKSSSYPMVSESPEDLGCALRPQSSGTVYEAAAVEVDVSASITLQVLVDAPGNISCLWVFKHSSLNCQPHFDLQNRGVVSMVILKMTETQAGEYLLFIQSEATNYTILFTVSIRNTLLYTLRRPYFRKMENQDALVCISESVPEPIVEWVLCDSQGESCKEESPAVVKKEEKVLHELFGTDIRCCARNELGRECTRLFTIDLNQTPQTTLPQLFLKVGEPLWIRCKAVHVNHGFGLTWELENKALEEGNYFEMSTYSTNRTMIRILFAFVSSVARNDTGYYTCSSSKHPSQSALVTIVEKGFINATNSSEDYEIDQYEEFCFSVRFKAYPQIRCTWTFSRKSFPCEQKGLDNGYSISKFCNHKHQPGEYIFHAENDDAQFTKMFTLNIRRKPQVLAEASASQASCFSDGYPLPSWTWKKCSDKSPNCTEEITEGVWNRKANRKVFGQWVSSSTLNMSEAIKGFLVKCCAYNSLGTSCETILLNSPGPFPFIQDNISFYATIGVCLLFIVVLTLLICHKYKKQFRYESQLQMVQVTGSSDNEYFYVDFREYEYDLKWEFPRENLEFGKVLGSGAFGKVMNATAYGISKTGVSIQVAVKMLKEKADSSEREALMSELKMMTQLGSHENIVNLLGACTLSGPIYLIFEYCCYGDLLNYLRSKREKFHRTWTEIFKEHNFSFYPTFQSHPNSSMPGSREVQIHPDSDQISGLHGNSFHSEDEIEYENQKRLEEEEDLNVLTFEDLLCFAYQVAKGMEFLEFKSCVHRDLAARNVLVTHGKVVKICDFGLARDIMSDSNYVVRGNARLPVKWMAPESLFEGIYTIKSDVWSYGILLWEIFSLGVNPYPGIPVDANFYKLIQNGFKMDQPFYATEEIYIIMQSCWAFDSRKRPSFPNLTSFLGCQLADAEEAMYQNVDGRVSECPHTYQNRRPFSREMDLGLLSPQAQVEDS
UniProt P06241, whole entry, looked up: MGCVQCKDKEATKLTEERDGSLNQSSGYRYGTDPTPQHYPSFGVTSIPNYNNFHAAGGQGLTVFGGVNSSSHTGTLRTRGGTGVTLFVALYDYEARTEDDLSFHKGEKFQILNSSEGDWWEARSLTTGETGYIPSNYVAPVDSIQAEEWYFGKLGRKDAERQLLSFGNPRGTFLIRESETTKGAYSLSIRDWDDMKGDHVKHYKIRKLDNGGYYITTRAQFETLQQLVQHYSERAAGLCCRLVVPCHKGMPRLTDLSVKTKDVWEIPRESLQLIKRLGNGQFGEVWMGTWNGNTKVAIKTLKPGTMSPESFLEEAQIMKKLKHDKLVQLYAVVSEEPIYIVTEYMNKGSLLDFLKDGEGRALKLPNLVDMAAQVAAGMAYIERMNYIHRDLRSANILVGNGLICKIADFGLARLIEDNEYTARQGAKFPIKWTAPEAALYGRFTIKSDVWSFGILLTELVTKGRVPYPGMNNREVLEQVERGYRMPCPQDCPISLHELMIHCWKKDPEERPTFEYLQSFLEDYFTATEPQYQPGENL
UniProt P49840: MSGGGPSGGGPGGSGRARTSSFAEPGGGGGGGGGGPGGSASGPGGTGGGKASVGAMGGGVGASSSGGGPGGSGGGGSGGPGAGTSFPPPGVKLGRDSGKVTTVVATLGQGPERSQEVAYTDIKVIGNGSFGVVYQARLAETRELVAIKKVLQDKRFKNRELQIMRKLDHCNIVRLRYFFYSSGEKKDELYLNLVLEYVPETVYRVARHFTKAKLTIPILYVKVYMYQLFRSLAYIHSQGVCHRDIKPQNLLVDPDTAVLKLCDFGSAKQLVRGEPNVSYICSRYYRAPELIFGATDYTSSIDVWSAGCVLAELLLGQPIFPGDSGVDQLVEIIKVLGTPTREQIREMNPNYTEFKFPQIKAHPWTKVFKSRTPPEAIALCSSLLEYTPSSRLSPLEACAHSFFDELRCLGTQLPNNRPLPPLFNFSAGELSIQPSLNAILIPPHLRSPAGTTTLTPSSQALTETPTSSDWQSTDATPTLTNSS
UniProt P14616: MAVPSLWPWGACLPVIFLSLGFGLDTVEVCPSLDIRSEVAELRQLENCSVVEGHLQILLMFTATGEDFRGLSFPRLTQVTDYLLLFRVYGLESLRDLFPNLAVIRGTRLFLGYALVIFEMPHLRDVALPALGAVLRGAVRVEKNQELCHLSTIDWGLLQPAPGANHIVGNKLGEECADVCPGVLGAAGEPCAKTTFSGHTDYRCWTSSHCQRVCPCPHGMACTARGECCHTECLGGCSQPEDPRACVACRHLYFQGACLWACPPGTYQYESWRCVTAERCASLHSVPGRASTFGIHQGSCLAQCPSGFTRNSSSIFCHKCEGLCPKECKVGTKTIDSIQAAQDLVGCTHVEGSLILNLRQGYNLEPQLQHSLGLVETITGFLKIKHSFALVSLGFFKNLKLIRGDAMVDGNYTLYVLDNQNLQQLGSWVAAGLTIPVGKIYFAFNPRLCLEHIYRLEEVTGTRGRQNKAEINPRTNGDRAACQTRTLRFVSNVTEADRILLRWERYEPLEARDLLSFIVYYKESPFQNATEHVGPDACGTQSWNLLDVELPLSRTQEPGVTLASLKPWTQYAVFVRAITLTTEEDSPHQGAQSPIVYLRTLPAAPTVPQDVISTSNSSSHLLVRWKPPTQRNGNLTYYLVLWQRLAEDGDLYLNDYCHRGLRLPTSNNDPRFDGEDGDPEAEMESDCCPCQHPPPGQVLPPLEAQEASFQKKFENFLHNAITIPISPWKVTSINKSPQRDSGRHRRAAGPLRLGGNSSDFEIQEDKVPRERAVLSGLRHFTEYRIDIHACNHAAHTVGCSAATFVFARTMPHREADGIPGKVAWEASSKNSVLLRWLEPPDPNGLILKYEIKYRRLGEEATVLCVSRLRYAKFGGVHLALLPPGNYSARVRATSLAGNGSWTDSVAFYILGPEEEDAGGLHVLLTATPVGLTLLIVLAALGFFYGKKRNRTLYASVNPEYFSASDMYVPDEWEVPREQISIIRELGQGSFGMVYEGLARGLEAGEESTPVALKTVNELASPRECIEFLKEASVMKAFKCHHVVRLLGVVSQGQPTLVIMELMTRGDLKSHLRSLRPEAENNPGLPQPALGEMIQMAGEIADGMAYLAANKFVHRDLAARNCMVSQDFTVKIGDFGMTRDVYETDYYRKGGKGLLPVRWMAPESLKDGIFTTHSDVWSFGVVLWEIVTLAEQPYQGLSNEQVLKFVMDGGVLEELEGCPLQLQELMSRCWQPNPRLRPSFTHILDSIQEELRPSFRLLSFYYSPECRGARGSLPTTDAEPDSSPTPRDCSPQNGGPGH

Legend:
Assay in all cases: kinase-Nluc reporter destabilization hit call (1 = scored as downregulated) (binary); higher = compound decreases kinase abundance
Conditions in all cases: K562; 2-18 h
ERN1 = ERN1 (UniProt O75460)
FGFR1 = FGFR1 (UniProt P11362)
FGFR2 = FGFR2 (UniProt P21802)
FGFR3 = FGFR3 (UniProt P22607)
FGR = FGR (UniProt P09769)
FLT3 = FLT3 (UniProt P36888)
FYN = FYN (UniProt P06241)
GSK3A = GSK3A (UniProt P49840)
HER2 = HER2 (UniProt P04626)
INSRR = INSRR (UniProt P14616)

Compound | kinase-Nluc reporter destabilization hit call (ERN1) | kinase-Nluc reporter destabilization hit call (FGFR1) | kinase-Nluc reporter destabilization hit call (FGFR2) | kinase-Nluc reporter destabilization hit call (FGFR3) | kinase-Nluc reporter destabilization hit call (FGR) | kinase-Nluc reporter destabilization hit call (FLT3) | kinase-Nluc reporter destabilization hit call (FYN) | kinase-Nluc reporter destabilization hit call (GSK3A) | kinase-Nluc reporter destabilization hit call (HER2) | kinase-Nluc reporter destabilization hit call (INSRR)
CO[C@H]1C[C@@H]2CC[C@@H](C)[C@@](O)(O2)C(=O)C(=O)N2CCCC[C@H]2C(=O)O[C@H]([C@H](C)C[C@@H]2CC[C@@H](OCCO)[C@H](OC)C2)CC(=O)[C@H](C)/C=C(\C)[C@@H](O)[C@@H](OC)C(=O)[C@H](C)C[C@H](C)/C=C/C=C/C=C/1C [Everolimus] (10 µM) | inactive: 0 | inactive: 0 | inactive: 0 | inactive: 0 | inactive: 0 | inactive: 0 | inactive: 0 | inactive: 0 | inactive: 0 | inactive: 0
COC(=O)[C@H](CCSC)NC(=O)c1ccc(NC[C@@H](N)CS)cc1-c1ccccc1 [FTI-277 (hydrochloride)] (10 µM) | inactive: 0 | inactive: 0 | inactive: 0 | inactive: 0 | inactive: 0 | inactive: 0 | inactive: 0 | inactive: 0 | inactive: 0 | inactive: 0
CCc1c[nH]c2ncnc(N3CC[C@](N)(CNC(=O)c4ccc(F)cc4F)C3)c12 (10 µM) | inactive: 0 | inactive: 0 | inactive: 0 | inactive: 0 | inactive: 0 | inactive: 0 | inactive: 0 | inactive: 0 | inactive: 0 | inactive: 0
COc1ccc(Br)cc1NC(=O)Nc1cccc2c1ccn2Cc1ccnc(N)c1 (2.5 µM) | inactive: 0 | inactive: 0 | inactive: 0 | inactive: 0 | inactive: 0 | inactive: 0 | inactive: 0 | inactive: 0 | inactive: 0 | inactive: 0
Cc1c(Cl)cccc1S(=O)(=O)Nc1nc(NCCc2ccccc2)nc2c1CN(Cc1ccccc1)CC2 (2.5 µM) | inactive: 0 | inactive: 0 | inactive: 0 | inactive: 0 | inactive: 0 | inactive: 0 | inactive: 0 | inactive: 0 | inactive: 0 | inactive: 0
Nc1ncc(C(=O)NC2CN(C(=O)C3CC3)C2)c2ccc(-c3cccc(F)c3)nc12 (2 µM) | inactive: 0 | inactive: 0 | inactive: 0 | inactive: 0 | inactive: 0 | inactive: 0 | inactive: 0 | inactive: 0 | inactive: 0 | inactive: 0
N#Cc1ccc2ncnc(NCCc3ccccc3)c2c1 [Senexin A] (10 µM) | inactive: 0 | inactive: 0 | inactive: 0 | inactive: 0 | inactive: 0 | inactive: 0 | inactive: 0 | inactive: 0 | inactive: 0 | inactive: 0
CN1CCN(c2cc(-c3ccncc3)c(-c3ccc4ccccc4c3)nn2)CC1 (10 µM) | inactive: 0 | inactive: 0 | inactive: 0 | inactive: 0 | inactive: 0 | inactive: 0 | inactive: 0 | inactive: 0 | inactive: 0 | inactive: 0
Cn1c(=O)c2c(nc(S(C)(=O)=O)n2C)n(CC#Cc2cccc(O)c2)c1=O (2.5 µM) | inactive: 0 | inactive: 0 | inactive: 0 | inactive: 0 | inactive: 0 | inactive: 0 | inactive: 0 | inactive: 0 | inactive: 0 | inactive: 0
CCCCCc1ccc(/C=C/[C@H](O)[C@@H](CO)NC)cc1 [SK1-I (hydrochloride)] (10 µM) | inactive: 0 | inactive: 0 | inactive: 0 | inactive: 0 | inactive: 0 | inactive: 0 | inactive: 0 | inactive: 0 | inactive: 0 | inactive: 0
CO[C@H]1CC[C@H](N2C(=O)CNc3ncc(-c4ccc(C(C)(C)O)nc4)nc32)CC1 (2.5 µM) | inactive: 0 | inactive: 0 | inactive: 0 | inactive: 0 | inactive: 0 | inactive: 0 | inactive: 0 | inactive: 0 | inactive: 0 | inactive: 0
COc1cc2nccc(Oc3ccc(NC(=O)c4cn(C(C)C)c(=O)n(-c5ccc(F)cc5)c4=O)cc3F)c2cc1OC (0.5 µM) | inactive: 0 | inactive: 0 | inactive: 0 | inactive: 0 | inactive: 0 | inactive: 0 | inactive: 0 | inactive: 0 | inactive: 0 | inactive: 0
Cn1ncc(NC(=O)c2nc(-c3c(F)cccc3F)sc2N)c1N1CC[C@@H](N)[C@H](F)CC1 (10 µM) | inactive: 0 | inactive: 0 | inactive: 0 | inactive: 0 | inactive: 0 | inactive: 0 | inactive: 0 | inactive: 0 | inactive: 0 | inactive: 0
COc1cc2c(cc1Nc1ncc(C(N)=O)c(Nc3c(F)cccc3C(F)(F)F)n1)CN(C)CC2 (2.5 µM) | inactive: 0 | inactive: 0 | inactive: 0 | inactive: 0 | inactive: 0 | inactive: 0 | inactive: 0 | inactive: 0 | inactive: 0 | inactive: 0
C=CC(=O)Nc1ccc(C(=O)Nc2[nH]nc3c2CN(C(=O)N[C@H](CN(C)C)c2ccccc2)C3(C)C)cc1 (10 µM) | inactive: 0 | inactive: 0 | inactive: 0 | inactive: 0 | inactive: 0 | inactive: 0 | inactive: 0 | inactive: 0 | inactive: 0 | active: 1
c1nc2c(NC3CCCCC3)nc(Nc3ccc(N4CCOCC4)cc3)nc2[nH]1 [Reversine] (10 µM) | inactive: 0 | inactive: 0 | inactive: 0 | inactive: 0 | inactive: 0 | inactive: 0 | inactive: 0 | inactive: 0 | inactive: 0 | inactive: 0
Cc1nc[nH]c1CN1CCN(C(=O)N[C@@H](CC(C)C)C(=O)O)[C@@H](Cc2ccccc2)C1=O (10 µM) | inactive: 0 | inactive: 0 | inactive: 0 | inactive: 0 | inactive: 0 | inactive: 0 | inactive: 0 | inactive: 0 | inactive: 0 | inactive: 0
Cc1cc(O)c2c(c1)C(=O)c1cccc(O)c1C2=O [Chrysophanol] (2 µM) | inactive: 0 | inactive: 0 | inactive: 0 | inactive: 0 | inactive: 0 | inactive: 0 | inactive: 0 | inactive: 0 | inactive: 0 | inactive: 0
O=C1Nc2ccc(CN3C(=O)CSC3=O)cc2/C1=C/c1cc(CN2CCOCC2)c[nH]1 (10 µM) | inactive: 0 | inactive: 0 | inactive: 0 | inactive: 0 | inactive: 0 | inactive: 0 | inactive: 0 | inactive: 0 | inactive: 0 | inactive: 0
CC(C)[C@H](CO)Nc1nc(Nc2cccc(Cl)c2)c2ncn(C(C)C)c2n1 [Purvalanol A] (10 µM) | inactive: 0 | inactive: 0 | inactive: 0 | inactive: 0 | inactive: 0 | inactive: 0 | inactive: 0 | inactive: 0 | inactive: 0 | inactive: 0
O=C(O)c1ccc(/C=C/S(=O)(=O)Cc2ccc(Cl)cc2)cc1 [Recilisib] (10 µM) | inactive: 0 | inactive: 0 | inactive: 0 | inactive: 0 | inactive: 0 | inactive: 0 | inactive: 0 | inactive: 0 | inactive: 0 | inactive: 0
Cc1ccc(C)c(OCCn2cc(C(=O)O)c3ccccc32)c1 (10 µM) | inactive: 0 | inactive: 0 | inactive: 0 | inactive: 0 | inactive: 0 | inactive: 0 | inactive: 0 | inactive: 0 | inactive: 0 | inactive: 0
Cc1ccc(-n2nc(C(C)(C)C)cc2NC(=O)Nc2ccc(OCCN3CCOCC3)cc2)cc1 (10 µM) | inactive: 0 | inactive: 0 | inactive: 0 | inactive: 0 | inactive: 0 | inactive: 0 | inactive: 0 | inactive: 0 | inactive: 0 | inactive: 0
Cc1c(C)c(NCC(=O)N(C)C2CCN(Cc3ccc(C(N)=O)cc3)CC2)c(C)c(C)c1N (10 µM) | inactive: 0 | inactive: 0 | inactive: 0 | inactive: 0 | inactive: 0 | inactive: 0 | inactive: 0 | inactive: 0 | inactive: 0 | inactive: 0
COc1cc2c(cc1OC)/C(=C/c1ccc(O)cc1)C(=O)N2 (10 µM) | inactive: 0 | inactive: 0 | inactive: 0 | inactive: 0 | inactive: 0 | inactive: 0 | inactive: 0 | inactive: 0 | inactive: 0 | inactive: 0
C=CC(=O)N1CC[C@@H](Oc2nc(Nc3ccc(N4CCC(N5CCN(C)CC5)CC4)cc3)c(C(N)=O)nc2CC)C1 [Naquotinib (mesylate)] (2.5 µM) | inactive: 0 | inactive: 0 | inactive: 0 | inactive: 0 | inactive: 0 | inactive: 0 | inactive: 0 | inactive: 0 | inactive: 0 | inactive: 0
O=C(Nc1cccc(-c2nc(-c3ccc(NC(=O)c4cccnc4)cc3Cl)no2)c1)Nc1ccc(NC(=O)C2CC2)c(C(F)(F)F)c1 (2.5 µM) | inactive: 0 | inactive: 0 | inactive: 0 | inactive: 0 | inactive: 0 | inactive: 0 | inactive: 0 | inactive: 0 | inactive: 0 | inactive: 0
COc1cc(N2CCC(N3CCN(C)CC3)CC2)ccc1Nc1ncc(Cl)c(-c2c[nH]c3ccccc23)n1 (2.5 µM) | inactive: 0 | inactive: 0 | inactive: 0 | inactive: 0 | inactive: 0 | inactive: 0 | inactive: 0 | inactive: 0 | inactive: 0 | inactive: 0

Retrieved by structure from above:
Compound | kinase-Nluc reporter destabilization hit call (ERN1) | kinase-Nluc reporter destabilization hit call (FGFR1) | kinase-Nluc reporter destabilization hit call (FGFR2) | kinase-Nluc reporter destabilization hit call (FGFR3) | kinase-Nluc reporter destabilization hit call (FGR) | kinase-Nluc reporter destabilization hit call (FLT3) | kinase-Nluc reporter destabilization hit call (FYN) | kinase-Nluc reporter destabilization hit call (GSK3A) | kinase-Nluc reporter destabilization hit call (HER2) | kinase-Nluc reporter destabilization hit call (INSRR)
O=C1Nc2ccc(CN3C(=O)CSC3=O)cc2/C1=C/c1cc(CN2CCOCC2)c[nH]1 (10 µM) | inactive: 0 | inactive: 0 | inactive: 0 | inactive: 0 | inactive: 0 | inactive: 0 | inactive: 0 | inactive: 0 | inactive: 0 | inactive: 0
CO[C@H]1C[C@@H]2CC[C@@H](C)[C@@](O)(O2)C(=O)C(=O)N2CCCC[C@H]2C(=O)O[C@H]([C@H](C)C[C@@H]2CC[C@@H](OCCO)[C@H](OC)C2)CC(=O)[C@H](C)/C=C(\C)[C@@H](O)[C@@H](OC)C(=O)[C@H](C)C[C@H](C)/C=C/C=C/C=C/1C [Everolimus] (10 µM) | inactive: 0 | inactive: 0 | inactive: 0 | inactive: 0 | inactive: 0 | inactive: 0 | inactive: 0 | inactive: 0 | inactive: 0 | inactive: 0
